# According to the supplement of paper PMC7666118:
# The chains behind the UniProt entries cited, without tags or fusion partners. Where a name states a change or a piece, a line headed by the entry shows the natural chain unless it says otherwise.
# UniProt Q49B96: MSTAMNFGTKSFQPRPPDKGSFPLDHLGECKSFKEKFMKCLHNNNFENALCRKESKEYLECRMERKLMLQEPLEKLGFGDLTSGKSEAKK
# UniProt Q9HC77: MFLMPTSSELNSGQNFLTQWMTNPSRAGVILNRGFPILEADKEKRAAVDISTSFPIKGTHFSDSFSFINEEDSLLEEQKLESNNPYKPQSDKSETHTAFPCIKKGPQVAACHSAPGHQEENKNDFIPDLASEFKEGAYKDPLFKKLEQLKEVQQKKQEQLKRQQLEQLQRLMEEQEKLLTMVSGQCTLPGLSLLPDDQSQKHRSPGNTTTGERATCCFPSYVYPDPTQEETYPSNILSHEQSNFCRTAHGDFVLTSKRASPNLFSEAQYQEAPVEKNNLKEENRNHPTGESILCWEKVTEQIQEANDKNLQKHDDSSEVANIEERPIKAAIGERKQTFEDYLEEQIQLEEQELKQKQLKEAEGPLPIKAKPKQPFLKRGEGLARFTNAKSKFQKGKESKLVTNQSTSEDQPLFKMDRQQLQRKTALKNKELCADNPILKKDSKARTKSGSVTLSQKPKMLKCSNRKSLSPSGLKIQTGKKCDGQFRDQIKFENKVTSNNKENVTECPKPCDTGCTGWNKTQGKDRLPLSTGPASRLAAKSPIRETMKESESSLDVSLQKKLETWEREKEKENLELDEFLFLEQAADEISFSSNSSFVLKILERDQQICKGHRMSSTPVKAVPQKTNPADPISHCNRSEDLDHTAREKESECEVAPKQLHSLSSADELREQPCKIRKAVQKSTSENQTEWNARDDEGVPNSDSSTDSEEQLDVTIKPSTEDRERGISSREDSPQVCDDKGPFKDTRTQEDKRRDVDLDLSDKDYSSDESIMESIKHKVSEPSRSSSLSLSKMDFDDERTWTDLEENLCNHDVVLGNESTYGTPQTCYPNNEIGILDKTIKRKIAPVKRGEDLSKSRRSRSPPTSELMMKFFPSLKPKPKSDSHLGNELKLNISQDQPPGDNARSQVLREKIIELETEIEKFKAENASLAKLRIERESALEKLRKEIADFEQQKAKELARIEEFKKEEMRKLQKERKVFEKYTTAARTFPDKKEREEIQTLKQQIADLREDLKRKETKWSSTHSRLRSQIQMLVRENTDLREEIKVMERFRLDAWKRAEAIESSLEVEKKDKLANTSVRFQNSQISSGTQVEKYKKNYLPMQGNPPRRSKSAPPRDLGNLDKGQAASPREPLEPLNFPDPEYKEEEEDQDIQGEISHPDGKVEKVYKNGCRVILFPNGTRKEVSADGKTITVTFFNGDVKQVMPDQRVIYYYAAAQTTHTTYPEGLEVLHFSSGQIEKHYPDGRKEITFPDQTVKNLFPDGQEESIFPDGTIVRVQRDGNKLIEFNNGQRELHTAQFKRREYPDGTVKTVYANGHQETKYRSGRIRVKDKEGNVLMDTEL
# UniProt Q99439: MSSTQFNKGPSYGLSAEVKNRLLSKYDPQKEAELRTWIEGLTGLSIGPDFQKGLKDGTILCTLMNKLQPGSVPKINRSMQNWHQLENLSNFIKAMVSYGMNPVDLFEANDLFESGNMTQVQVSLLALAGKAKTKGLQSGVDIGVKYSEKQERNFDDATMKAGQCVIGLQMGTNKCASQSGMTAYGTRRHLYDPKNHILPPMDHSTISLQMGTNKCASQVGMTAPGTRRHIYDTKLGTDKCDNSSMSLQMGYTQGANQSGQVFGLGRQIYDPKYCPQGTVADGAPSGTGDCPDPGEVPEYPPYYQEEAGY
# UniProt Q9Y6G5, whole entry: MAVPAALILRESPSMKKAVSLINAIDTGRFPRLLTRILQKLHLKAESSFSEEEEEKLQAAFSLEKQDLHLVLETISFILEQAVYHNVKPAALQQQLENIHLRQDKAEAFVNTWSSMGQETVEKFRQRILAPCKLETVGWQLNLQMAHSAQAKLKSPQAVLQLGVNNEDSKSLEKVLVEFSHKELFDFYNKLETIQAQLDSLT
# UniProt Q96MW5: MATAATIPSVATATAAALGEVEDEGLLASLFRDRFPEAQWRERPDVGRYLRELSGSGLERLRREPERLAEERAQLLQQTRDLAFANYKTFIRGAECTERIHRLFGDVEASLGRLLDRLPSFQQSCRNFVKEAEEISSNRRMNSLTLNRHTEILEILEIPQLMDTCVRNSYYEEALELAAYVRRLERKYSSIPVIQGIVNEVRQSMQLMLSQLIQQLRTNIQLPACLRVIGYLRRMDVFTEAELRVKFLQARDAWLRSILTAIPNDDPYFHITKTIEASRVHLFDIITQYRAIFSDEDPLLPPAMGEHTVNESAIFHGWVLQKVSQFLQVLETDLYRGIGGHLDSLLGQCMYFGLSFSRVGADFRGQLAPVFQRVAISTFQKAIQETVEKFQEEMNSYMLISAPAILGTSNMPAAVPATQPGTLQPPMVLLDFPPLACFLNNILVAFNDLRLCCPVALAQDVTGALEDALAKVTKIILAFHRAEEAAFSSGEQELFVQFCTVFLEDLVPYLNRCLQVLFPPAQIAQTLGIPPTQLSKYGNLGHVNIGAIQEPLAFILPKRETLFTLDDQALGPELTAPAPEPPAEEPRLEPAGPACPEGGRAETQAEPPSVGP
# UniProt O14735: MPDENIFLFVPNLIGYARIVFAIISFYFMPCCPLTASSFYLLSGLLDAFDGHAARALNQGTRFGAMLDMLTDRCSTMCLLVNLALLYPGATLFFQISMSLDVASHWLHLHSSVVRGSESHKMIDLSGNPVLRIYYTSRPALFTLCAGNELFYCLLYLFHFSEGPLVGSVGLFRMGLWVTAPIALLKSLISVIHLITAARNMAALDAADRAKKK
# UniProt P14406, whole entry: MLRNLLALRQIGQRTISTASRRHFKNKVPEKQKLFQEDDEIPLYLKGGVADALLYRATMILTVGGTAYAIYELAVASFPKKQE
# UniProt P36551: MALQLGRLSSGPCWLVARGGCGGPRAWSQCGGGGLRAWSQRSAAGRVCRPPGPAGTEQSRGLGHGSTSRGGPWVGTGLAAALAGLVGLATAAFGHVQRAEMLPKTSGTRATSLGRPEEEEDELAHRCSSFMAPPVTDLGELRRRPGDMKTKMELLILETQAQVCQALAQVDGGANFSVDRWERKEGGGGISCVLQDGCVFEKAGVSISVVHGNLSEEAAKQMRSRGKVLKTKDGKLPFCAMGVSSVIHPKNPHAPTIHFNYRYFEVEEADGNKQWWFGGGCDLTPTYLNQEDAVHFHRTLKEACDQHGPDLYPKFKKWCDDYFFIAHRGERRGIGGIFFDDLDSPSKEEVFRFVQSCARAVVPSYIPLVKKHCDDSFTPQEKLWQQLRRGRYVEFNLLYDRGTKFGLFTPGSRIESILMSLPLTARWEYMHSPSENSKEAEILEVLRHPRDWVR
# UniProt Q9NWW5: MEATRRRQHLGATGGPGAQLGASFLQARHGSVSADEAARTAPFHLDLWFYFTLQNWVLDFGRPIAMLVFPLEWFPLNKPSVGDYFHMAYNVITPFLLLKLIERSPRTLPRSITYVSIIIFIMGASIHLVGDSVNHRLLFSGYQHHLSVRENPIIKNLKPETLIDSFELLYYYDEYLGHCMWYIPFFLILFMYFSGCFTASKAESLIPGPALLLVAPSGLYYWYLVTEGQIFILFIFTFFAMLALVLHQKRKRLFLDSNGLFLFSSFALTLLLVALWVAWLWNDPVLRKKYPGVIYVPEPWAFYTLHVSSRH
# UniProt P51798: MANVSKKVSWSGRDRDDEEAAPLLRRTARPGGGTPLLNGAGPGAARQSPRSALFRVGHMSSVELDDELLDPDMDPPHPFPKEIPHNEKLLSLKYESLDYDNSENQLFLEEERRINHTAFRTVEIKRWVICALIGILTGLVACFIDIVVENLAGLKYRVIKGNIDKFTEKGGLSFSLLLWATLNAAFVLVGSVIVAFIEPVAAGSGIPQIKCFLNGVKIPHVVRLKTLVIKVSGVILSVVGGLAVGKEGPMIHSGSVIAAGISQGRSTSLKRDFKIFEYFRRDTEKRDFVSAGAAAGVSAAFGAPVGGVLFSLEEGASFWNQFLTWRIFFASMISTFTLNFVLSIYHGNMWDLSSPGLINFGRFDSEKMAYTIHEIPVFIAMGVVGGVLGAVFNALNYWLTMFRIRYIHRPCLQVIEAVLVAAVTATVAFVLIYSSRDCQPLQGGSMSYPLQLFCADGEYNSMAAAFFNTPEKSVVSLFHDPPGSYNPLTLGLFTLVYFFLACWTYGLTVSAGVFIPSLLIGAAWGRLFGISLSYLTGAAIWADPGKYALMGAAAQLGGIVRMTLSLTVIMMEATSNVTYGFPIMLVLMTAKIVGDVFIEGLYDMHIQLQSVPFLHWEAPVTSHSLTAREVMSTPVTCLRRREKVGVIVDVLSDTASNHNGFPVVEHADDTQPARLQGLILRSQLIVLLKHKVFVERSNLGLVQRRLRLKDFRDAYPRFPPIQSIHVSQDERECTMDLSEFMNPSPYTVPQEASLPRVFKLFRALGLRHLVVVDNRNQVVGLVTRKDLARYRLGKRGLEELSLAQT
# UniProt Q05315: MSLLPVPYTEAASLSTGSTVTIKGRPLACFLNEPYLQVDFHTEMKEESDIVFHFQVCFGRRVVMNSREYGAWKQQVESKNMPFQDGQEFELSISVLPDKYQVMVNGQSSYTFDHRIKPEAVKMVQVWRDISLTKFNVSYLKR
# UniProt O60508: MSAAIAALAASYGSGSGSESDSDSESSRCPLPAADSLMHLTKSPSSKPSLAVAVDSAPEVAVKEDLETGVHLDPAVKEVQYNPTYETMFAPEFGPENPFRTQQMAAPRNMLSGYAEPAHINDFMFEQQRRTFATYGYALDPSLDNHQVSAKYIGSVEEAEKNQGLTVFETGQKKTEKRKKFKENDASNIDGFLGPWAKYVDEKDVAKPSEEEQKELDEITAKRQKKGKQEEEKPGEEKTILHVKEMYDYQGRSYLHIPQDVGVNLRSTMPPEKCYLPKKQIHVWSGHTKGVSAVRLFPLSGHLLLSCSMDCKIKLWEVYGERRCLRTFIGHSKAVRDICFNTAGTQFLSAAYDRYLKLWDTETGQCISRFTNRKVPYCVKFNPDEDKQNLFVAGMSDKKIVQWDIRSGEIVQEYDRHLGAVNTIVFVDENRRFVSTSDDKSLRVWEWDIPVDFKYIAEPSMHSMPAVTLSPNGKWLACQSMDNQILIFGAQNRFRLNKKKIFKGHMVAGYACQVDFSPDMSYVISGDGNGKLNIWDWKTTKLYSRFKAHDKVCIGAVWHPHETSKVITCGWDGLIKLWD
# UniProt Q14061: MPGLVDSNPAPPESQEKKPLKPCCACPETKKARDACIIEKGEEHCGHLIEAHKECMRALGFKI
# UniProt Q12834, whole entry: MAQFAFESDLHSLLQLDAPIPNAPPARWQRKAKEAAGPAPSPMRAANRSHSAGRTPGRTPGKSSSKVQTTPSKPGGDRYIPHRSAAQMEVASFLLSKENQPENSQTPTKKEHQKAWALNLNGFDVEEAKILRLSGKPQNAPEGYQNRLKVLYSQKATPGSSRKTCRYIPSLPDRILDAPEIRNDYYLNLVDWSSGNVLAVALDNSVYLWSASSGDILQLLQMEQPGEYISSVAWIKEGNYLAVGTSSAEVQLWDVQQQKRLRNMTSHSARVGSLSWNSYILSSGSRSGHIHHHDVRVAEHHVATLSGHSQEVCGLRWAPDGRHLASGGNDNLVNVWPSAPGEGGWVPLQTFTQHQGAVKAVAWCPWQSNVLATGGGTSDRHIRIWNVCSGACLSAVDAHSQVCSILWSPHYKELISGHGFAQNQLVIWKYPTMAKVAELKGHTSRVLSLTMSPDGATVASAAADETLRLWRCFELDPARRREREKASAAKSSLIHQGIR
# UniProt P23786: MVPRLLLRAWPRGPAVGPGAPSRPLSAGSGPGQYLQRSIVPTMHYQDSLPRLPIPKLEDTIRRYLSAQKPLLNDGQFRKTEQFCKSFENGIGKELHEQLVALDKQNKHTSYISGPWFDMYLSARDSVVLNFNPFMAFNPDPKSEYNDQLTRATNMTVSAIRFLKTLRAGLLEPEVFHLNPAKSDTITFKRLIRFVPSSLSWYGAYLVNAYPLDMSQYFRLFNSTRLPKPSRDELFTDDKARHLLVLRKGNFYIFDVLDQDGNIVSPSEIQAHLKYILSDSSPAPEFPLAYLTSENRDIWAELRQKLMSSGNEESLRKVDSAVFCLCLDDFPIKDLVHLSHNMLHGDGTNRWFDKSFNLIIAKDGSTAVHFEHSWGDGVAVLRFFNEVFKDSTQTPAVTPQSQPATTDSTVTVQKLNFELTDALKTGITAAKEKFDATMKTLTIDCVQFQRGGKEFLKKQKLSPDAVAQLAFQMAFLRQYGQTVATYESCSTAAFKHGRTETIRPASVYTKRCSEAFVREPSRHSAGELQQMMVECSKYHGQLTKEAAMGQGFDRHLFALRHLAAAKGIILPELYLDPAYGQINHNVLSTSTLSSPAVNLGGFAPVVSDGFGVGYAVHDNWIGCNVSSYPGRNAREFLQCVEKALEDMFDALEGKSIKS
# UniProt Q86VX2, whole entry: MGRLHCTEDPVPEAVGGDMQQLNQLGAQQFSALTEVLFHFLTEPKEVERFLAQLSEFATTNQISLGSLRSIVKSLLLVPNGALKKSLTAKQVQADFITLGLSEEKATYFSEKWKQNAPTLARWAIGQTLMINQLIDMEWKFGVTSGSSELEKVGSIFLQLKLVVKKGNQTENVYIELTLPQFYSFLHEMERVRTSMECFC
# This is one part of the list.
# Compound: COc1ccc(Cn2ccc3cc(C)c(C(=O)NO)cc32)cc1
# Assay: dose-dependent thermal stabilisation call (2D-TPP, DLPTP, 10% FDR) (binary (1 = stabilised)); higher = stabilised by the compound
# Conditions: system: HL-60 intact cells; concentration range 0.04-10 µM
# Procedure: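 2D thermal proteome profiling in intact HL-60 cells treated with BRD-3811 (0, 0.04, 0.29, 2, 10 uM) for 90 min at 37 C, then heated 3 min at one of 12 temperatures (42-63.9 C). Soluble protein was quantified by TMT10 MS. The value is the DLPTP call of the paper: dose-dependent thermal stabilisation over all temperatures at 10% FDR (F-test of a dose-response against a flat model); one experiment, one call per tested protein.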
row,Target,dose-dependent thermal stabilisation call
1,CHD2 (UniProt O14647),inactive: 0
2,CNOT6L (UniProt Q96LI5),inactive: 0
3,COX19 (UniProt Q49B96),inactive: 0
4,CENPJ (UniProt Q9HC77),inactive: 0
5,CDKN2AIP (UniProt Q9NXV6),inactive: 0
6,CNN2 (UniProt Q99439),inactive: 0
7,COMMD10 (UniProt Q9Y6G5),inactive: 0
8,COG8 (UniProt Q96MW5),inactive: 0
9,CLPX (UniProt O76031),inactive: 0
10,CDIPT (UniProt O14735),inactive: 0
11,COX7A2 (UniProt P14406),inactive: 0
12,CRKRS (UniProt Q9NYV4),inactive: 0
13,CLIC1 (UniProt O00299),inactive: 0
14,CPOX (UniProt P36551),active: 1
15,CLN6 (UniProt Q9NWW5),inactive: 0
16,CLYBL (UniProt Q8N0X4),inactive: 0
17,CLCN7 (UniProt P51798),inactive: 0
18,CLC (UniProt Q05315),inactive: 0
19,CDC40 (UniProt O60508),inactive: 0
20,COX17 (UniProt Q14061),inactive: 0
21,CDC20 (UniProt Q12834),inactive: 0
22,COMMD3 (UniProt Q9UBI1),inactive: 0
23,CHP (UniProt Q99653),inactive: 0
24,CDC73 (UniProt Q6P1J9),inactive: 0
25,CHD1 (UniProt O14646),inactive: 0
26,CPT2 (UniProt P23786),inactive: 0
27,COMMD7 (UniProt Q86VX2),inactive: 0

# Some values from the results shown.
# dose-dependent thermal stabilisation call with CLC (UniProt Q05315) is entered as inactive: 0
# dose-dependent thermal stabilisation call with COMMD10 (UniProt Q9Y6G5) is entered as inactive: 0
